Assay results taken from PMC6403367.
Results are given in words; binding and its absence hold for the method and conditions named. In cells and extracts the contact can be indirect. Some entries that bind do so weakly or less than the wild type.

By UniProt entry, the sequences of proteins in these tests, tags left out.
UniProt Q9EPW2: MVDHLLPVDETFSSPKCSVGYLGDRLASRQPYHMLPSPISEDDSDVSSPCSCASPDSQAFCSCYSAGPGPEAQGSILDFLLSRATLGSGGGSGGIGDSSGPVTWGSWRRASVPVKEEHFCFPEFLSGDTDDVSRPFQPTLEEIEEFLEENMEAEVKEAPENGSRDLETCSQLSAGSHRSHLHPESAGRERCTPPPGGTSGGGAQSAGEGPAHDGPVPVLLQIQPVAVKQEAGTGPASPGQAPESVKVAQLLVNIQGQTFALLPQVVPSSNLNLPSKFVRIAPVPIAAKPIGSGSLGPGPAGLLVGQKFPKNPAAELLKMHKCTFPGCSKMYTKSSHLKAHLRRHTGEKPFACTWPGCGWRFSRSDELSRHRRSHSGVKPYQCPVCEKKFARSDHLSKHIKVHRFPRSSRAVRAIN
UniProt Q04211: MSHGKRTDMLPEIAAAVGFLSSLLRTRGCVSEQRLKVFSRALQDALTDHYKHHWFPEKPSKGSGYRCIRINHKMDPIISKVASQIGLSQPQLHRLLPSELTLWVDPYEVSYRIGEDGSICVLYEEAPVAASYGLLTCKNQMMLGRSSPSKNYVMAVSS

Target: Kruppel-like factor 15 (KLF15) (mouse (endogenous in mouse liver)) (UniProt Q9EPW2)
Test: co-IP; liver extracts of mice fed ad libitum or fasted for 24 h; immunoprecipitated with antibodies against BTG2 or KLF15 on protein A/G PLUS-Agarose, Western blot with the corresponding antibodies

binding: binds
Substance: B-cell translocation gene 2 (BTG2) (from UniProt Q04211 1-158)
